Drawing on PubChem BioAssay AID445 (National Center for Advancing Translational Sciences (NCATS), 2006), this text covers AC50 for 17 compounds.

The other results are listed elsewhere or left out. These are further read-outs of the screen, such as a control signal, another cell line or another target. No call is given for them. The list favours compounds with an active or inconclusive main result. Words in brackets tell the shape of the fitted curve; partial curves, single points and poor fits give uncertain potencies.

A word on the AC50: it is the midpoint of the concentration-response curve, whichever way the signal moves.

The test in a line: IkB Signaling. Conditions: ABC-DLBCL IkBa-CBG/CBR dual luciferase ratio (green luciferase fused to IkBa over red control in OCI-Ly3 lymphoma cells), 4 h; measured here: control luc red channel unless noted. The method, boiled down:
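Curves were fitted separately to fusion (green), unfused (red) and ratio luminescence, then classed by r2, magnitude and activity. Cells: OCI-Ly3, 4 h compound plus doxycycline at 37C; 10 uM MG-132 defined full response.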
For the compound `CC1=C(C(=O)Nc2ccccc2)C(c2ccc(Br)cc2)n2nc(CCCO)nc2N1` (configuration not stated), the AC50 was 20 µM [falling, single point].

As to `CCCc1cc(=O)[nH]c(Nc2cc(Cl)cc(Cl)c2)n1`, the AC50 is 3.16 µM [falling, full curve].

For the compound `O=C(O)c1ccc(/C=N\N=C2c3ccccc3-c3ccccc32)cc1`, the AC50 is 0.0251 µM [falling, full curve].

As to `COc1ccccc1N1CCN(C(=O)c2nn(C)c3c2CS(=O)(=O)c2ccccc2-3)CC1`, the AC50 is 6.31 µM [falling, partial curve].

For the compound `CCn1cc2nc(SCc3cc(C)ccc3C)n(Cc3ccc(Cl)cc3)c(=O)c2n1`, the AC50 is 5.01 µM [falling, full curve].

Turning to `Cc1nn(Cc2ccc(F)cc2)c(C)c1NC(=O)c1noc2c1CCc1ccccc1-2`, the AC50 was 31.6 µM [rising, partial curve] [measured here: IkB-luc green channel].

Take `CCOC(=O)c1ccc(NC(=O)Cc2noc3ccc(C)cc23)cc1`: the AC50 is 1.58 µM [falling, full curve].

As to `Cn1cc(S(=O)(=O)N2CCCC2)cc1C(=O)Nc1ccc(F)cc1F`, the AC50 is 15.8 µM [falling, single point].

Consider `CC(C)CCNC(=O)c1cc(-c2cccnc2)nc2ccc(S(=O)(=O)N3CCC(C)CC3)cc12`, for which the AC50 was 1 µM [rising, full curve].

Take `CCCn1c(SCC(=O)Nc2cccc(C(=O)OCC)c2)nnc1-c1ccoc1C`: the AC50 was 39.8 µM [falling, single point].

Take `Cc1cccc(-n2c3nc(=O)[nH]c(=O)c-3cc3ccc(Cl)cc32)c1C`: the AC50 is 10 µM [falling, partial curve].

Turning to `CCOC(=O)CC(NC(=O)Cn1nnc(-c2ccc(Cl)cc2)n1)c1ccc(OC)cc1` (configuration not stated), the AC50 was 20 µM [falling, single point].

For the compound `COc1cc(OC)c(NC(=O)c2ccc(-n3cnc4cccnc43)cc2)cc1Cl`, the AC50 is 3.98 µM [falling, full curve, poor fit].

In the case of `CC(=O)Nc1cccc(NC(=O)CSc2nccn2Cc2ccccc2)c1`, the AC50 is 15.8 µM [falling, single point].

`CC(=O)c1cccc(NC(=O)Cn2ccn3nc(-c4ccccc4)cc3c2=O)c1`: the AC50 is 20 µM [falling, partial curve, poor fit].

Turning to `N#CCSc1nc2c(c(C3CC=CCC3)c1C#N)CCC2` (configuration not stated), the AC50 was 6.31 µM [rising, single point] [measured here: IkB-luc green channel].

As for `COc1ccc(OCCCn2c(C3CC(=O)N(c4ccc(F)cc4)C3)nc3ccccc32)cc1` (configuration not stated), the AC50 was 25.1 µM [falling, partial curve].
